Results as given in the supplement of paper PMC10849652.
This is one part of the list.

The chains behind the UniProt entries cited, without tags or fusion partners. Where a name states a change or a piece, a line headed by the entry shows the natural chain unless it says otherwise.
UniProt Q86W56: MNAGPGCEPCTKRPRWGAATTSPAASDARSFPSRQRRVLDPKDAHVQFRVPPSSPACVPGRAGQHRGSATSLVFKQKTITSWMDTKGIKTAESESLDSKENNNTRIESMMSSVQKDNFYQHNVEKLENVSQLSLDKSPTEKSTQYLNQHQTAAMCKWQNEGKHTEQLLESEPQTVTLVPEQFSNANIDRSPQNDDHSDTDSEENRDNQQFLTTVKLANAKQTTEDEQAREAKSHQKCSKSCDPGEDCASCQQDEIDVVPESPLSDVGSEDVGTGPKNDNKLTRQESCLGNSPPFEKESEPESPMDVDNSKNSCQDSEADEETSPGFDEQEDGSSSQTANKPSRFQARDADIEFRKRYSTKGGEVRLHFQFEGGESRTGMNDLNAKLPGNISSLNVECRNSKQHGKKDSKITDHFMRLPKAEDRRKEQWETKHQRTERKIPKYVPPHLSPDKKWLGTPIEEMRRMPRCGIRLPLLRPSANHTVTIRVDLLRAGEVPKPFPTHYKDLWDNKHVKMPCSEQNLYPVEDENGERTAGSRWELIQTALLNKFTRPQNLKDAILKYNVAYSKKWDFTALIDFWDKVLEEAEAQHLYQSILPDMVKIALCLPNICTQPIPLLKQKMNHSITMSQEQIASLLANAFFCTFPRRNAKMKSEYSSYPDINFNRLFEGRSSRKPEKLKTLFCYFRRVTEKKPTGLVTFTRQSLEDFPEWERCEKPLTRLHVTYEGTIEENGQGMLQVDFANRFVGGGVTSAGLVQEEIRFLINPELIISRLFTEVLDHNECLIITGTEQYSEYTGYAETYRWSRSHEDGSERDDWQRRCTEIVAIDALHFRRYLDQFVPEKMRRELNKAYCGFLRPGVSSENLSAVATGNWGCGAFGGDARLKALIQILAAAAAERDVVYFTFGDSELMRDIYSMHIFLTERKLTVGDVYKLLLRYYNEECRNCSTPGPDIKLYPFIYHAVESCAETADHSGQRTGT
UniProt Q9NTK5, whole entry, looked up: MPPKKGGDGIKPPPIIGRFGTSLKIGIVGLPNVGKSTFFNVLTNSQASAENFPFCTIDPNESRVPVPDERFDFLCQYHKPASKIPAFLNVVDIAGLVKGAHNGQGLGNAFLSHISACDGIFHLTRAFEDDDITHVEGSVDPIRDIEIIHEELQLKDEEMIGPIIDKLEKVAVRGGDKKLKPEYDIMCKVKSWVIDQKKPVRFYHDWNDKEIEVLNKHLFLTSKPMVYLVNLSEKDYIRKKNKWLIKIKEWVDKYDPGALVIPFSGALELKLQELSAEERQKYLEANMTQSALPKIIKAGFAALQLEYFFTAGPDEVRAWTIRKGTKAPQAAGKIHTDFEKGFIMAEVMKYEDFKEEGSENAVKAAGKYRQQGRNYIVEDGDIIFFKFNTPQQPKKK
UniProt Q99567: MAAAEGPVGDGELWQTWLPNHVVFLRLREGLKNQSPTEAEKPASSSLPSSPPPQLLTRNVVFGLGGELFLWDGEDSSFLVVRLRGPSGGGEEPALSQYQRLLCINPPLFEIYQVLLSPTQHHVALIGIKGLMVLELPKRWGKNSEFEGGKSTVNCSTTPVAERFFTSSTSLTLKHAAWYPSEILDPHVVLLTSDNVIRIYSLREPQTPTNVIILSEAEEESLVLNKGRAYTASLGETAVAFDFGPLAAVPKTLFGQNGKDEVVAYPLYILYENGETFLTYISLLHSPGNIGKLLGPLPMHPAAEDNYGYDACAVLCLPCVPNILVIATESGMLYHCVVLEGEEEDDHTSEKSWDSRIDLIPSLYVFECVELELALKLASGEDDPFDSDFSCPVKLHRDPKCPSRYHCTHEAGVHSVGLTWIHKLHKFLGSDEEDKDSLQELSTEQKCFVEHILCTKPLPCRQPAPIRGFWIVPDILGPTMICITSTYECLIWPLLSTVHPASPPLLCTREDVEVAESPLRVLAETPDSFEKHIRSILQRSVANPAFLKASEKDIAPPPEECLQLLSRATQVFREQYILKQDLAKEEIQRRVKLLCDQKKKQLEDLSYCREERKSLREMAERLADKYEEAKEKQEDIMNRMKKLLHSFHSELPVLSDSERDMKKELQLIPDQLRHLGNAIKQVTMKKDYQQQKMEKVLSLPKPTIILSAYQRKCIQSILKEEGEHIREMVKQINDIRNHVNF
UniProt Q13438: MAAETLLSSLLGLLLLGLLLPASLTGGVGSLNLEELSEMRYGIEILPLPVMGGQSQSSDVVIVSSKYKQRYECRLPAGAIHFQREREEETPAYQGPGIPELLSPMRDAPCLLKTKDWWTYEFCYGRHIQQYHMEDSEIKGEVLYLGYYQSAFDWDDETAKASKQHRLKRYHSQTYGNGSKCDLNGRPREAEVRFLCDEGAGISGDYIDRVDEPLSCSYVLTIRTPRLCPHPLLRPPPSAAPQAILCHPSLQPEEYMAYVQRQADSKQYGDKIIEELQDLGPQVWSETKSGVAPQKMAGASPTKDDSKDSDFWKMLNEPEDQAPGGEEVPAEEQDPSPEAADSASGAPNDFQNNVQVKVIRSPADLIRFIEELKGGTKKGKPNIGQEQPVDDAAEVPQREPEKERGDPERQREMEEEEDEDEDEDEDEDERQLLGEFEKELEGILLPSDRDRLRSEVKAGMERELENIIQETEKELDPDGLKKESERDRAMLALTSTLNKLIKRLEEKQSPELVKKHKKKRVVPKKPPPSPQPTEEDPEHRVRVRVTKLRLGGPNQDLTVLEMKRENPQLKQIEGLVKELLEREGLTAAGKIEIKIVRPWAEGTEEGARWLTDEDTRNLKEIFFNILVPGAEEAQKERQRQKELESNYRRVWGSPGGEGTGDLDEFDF
UniProt P11940, whole entry, looked up: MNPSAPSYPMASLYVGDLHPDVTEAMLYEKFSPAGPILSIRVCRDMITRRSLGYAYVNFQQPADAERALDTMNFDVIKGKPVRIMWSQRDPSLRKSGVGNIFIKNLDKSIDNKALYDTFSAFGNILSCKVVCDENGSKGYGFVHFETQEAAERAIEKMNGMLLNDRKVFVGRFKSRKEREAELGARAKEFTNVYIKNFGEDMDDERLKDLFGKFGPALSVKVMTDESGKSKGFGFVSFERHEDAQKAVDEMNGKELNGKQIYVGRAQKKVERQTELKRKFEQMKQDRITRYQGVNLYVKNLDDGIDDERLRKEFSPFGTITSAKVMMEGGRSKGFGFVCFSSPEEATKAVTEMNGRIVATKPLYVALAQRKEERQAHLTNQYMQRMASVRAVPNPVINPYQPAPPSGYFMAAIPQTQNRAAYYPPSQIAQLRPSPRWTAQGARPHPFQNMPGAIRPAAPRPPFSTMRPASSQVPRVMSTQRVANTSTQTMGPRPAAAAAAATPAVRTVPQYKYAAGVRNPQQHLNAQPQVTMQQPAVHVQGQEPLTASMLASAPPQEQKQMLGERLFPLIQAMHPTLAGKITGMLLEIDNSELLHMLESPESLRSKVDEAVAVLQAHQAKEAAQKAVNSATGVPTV
UniProt Q9UKX7: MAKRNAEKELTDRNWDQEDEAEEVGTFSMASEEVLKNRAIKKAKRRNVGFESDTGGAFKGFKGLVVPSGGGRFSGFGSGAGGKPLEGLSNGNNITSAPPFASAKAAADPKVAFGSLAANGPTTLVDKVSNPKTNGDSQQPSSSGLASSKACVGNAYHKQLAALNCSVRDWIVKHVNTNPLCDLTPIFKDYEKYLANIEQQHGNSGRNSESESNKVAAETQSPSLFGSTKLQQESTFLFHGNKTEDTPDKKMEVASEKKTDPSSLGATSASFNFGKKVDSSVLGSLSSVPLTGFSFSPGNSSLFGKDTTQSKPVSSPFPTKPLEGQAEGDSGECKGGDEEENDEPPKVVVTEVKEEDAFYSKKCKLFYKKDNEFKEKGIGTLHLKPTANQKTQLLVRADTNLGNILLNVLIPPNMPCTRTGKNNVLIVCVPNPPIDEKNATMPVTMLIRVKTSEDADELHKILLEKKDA
UniProt Q96BN8, whole entry, looked up: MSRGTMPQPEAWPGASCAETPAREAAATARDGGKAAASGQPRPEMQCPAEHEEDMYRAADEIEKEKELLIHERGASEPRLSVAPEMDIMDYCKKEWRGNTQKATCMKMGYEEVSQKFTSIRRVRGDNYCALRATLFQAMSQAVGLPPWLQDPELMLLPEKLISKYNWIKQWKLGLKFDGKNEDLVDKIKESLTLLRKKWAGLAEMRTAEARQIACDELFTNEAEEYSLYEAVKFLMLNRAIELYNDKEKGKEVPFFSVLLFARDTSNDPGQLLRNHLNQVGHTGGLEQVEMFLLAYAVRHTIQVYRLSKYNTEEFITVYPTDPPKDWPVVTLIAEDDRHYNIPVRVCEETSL
UniProt Q9NX40: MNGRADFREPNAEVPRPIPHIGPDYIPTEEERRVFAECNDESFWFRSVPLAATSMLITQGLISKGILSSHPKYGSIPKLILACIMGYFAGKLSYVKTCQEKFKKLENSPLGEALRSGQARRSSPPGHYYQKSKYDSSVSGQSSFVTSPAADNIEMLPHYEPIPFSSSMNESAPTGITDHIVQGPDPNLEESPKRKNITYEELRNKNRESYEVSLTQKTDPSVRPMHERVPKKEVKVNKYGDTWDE
UniProt P35658: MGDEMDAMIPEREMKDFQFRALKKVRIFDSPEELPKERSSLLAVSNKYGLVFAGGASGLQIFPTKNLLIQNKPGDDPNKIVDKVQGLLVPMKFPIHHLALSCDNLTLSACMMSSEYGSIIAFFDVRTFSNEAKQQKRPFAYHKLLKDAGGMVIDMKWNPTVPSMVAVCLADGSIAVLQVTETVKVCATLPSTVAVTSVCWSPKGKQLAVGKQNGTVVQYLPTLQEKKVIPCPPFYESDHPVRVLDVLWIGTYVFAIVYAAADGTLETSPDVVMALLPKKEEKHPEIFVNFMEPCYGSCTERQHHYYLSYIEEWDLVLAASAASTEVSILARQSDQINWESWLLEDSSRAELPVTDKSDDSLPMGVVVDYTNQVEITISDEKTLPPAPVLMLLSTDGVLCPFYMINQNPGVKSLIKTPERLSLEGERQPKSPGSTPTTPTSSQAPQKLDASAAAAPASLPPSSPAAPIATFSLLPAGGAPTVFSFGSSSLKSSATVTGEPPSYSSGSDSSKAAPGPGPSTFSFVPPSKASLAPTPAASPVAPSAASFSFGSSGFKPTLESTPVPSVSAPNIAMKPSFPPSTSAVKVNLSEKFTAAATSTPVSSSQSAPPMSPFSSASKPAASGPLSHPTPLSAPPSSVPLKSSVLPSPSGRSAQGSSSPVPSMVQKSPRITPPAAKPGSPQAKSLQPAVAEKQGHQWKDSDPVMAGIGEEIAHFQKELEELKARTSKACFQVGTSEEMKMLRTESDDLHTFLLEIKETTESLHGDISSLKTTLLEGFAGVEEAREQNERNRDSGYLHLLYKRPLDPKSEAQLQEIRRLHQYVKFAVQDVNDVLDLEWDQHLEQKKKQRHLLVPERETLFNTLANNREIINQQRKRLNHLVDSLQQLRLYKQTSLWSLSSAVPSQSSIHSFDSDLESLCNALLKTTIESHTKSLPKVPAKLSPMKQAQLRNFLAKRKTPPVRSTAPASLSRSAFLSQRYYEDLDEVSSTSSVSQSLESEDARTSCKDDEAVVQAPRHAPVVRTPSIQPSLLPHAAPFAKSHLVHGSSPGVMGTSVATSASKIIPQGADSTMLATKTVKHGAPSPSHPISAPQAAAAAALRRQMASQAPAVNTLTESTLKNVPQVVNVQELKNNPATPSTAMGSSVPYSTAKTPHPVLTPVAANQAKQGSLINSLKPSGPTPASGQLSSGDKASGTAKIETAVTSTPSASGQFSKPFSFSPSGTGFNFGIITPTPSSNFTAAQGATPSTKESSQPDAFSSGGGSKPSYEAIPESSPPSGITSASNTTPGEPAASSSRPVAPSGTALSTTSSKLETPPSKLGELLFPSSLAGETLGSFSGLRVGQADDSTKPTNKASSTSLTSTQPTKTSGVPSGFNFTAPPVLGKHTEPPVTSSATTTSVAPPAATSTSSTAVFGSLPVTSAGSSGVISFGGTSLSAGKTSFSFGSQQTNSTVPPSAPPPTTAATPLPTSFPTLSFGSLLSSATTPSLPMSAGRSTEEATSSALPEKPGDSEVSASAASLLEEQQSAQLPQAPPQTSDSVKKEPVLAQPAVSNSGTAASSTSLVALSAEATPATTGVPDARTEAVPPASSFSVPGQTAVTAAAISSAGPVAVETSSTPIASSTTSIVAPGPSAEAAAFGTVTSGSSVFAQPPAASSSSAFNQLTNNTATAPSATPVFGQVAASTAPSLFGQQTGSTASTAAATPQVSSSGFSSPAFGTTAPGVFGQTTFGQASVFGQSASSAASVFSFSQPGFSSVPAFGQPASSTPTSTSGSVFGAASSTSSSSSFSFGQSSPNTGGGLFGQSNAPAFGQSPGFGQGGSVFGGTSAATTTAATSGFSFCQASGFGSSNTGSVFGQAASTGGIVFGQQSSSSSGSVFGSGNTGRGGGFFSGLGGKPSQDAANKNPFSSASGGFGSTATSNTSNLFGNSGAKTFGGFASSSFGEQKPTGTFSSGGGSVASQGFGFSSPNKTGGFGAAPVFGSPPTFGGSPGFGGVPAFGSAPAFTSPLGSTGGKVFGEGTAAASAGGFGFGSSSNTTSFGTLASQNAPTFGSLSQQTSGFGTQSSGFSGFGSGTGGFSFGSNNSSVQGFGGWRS

Experiments:
Test in all cases: log2 fold change, soluble protein after heating vs DMSO (PISA); higher = thermal stabilisation; K562 lysate, 10 uM; active = over 0.2 and 3.5 SD of the protein, either way, in both replicates (recomputed)
[1] = compound: CS(=O)(=O)CCNCc1ccc(-c2ccc3ncnc(Nc4ccc(OCc5cccc(F)c5)c(Cl)c4)c3c2)o1 [lapatinib]
Method in brief: (§1)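 A 30 min treatment with 10 μM compound was applied to crude K562 extract at 1 mg/mL protein in PBS pH 7.4 with 1 mM MgCl2. Heating for 3 min spanned 48°C-58°C, after which aliquots were pooled, adjusted to 0.5% NP-40 at 4°C and spun at 21,000xg for 90 min. TMTpro 16plex LC-MS/MS of the supernatant, with channel sums equalised, gave values recorded as log-two fold change in thermal stability against solvent controls, from duplicates.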

[2] = compound: CS(=O)(=O)N1CCN(Cc2cc3nc(-c4cccc5[nH]ncc45)nc(N4CCOCC4)c3s2)CC1 [pictilisib]
Method in brief: as §1

[3] = compound: C[C@@H](Oc1cc(-c2cnn(C3CCNCC3)c2)cnc1N)c1c(Cl)ccc(F)c1Cl [crizotinib]
Method in brief: as §1

[4] = compound: C[C@H](C1=CC=C(C=C1)C(=O)NC2=C3C=CNC3=NC=C2)N
Method in brief: as §1

[5] = compound: C[C@H](Nc1ncnc2nc[nH]c12)c1cc2cccc(Cl)c2c(=O)n1-c1ccccc1 [duvelisib]
Method in brief: as §1

[6] = compound: Cc1cc(Nc2cc(CN3CCOCC3)c3nc(C)c(Cc4ccc(Cl)cc4F)n3n2)n[nH]1 [gandotinib]
Method in brief: as §1

[7] = compound: Cc1cc(Nc2cc(N3CCN(C)CC3)nc(Sc3ccc(NC(=O)C4CC4)cc3)n2)n[nH]1 [tozasertib]
Method in brief: as §1

[8] = compound: Cc1ccc(-n2nc(C(C)(C)C)cc2NC(=O)Nc2ccc(OCCN3CCOCC3)c3ccccc23)cc1 [doramapimod]
Method in brief: as §1

[9] = compound: Cc1ccc(NC(=O)c2ccc(CN3CC[C@H](N(C)C)C3)c(C(F)(F)F)c2)cc1Nc1nccc(-c2cncnc2)n1 [bafetinib]
Method in brief: as §1

[10] = compound: Cc1cccc(CC(=O)N2CCc3c2ccc(-c2cn(C)c4ncnc(N)c24)c3F)n1
Method in brief: as §1

[11] = compound: Cc1cn(-c2cc(NC(=O)c3ccc(C)c(Nc4nccc(-c5cccnc5)n4)c3)cc(C(F)(F)F)c2)cn1 [nilotinib]
Method in brief: as §1

[12] = compound: Cc1nc(Nc2n[nH]c3c2CN(C(=O)N[C@H](CN(C)C)c2ccccc2)C3(C)C)c2sccc2n1
Method in brief: as §1

[13] = compound: Cc1nc(Nc2ncc(C(=O)Nc3c(C)cccc3Cl)s2)cc(N2CCN(CCO)CC2)n1 [dasatinib]
Method in brief: as §1

[14] = compound: Cc1ncc(-c2ccnc(Nc3ccc(S(C)(=O)=O)cc3)n2)n1C(C)C
Method in brief: as §1

[15] = compound: Cn1cc(-c2ccc3c(c2)CCN3C(=O)Cc2cccc(C(F)(F)F)c2)c2c(N)ncnc21
Method in brief: as §1

[16] = compound: Cn1cc(CNCC2CCN(c3ncc(C(=O)NO)cn3)CC2)c2ccccc21 [quisinostat]
Method in brief: as §1

[17] = compound: Cn1cncc1[C@@](N)(c1ccc(Cl)cc1)c1ccc2c(c1)c(-c1cccc(Cl)c1)cc(=O)n2C [tipifarnib]
Method in brief: as §1

[18] = compound: NC(=O)Nc1cc(-c2cccc(F)c2)sc1C(=O)N[C@H]1CCCNC1
Method in brief: as §1

[19] = compound: NC(=O)c1cnc(N[C@@H]2CCCC[C@@H]2N)nc1Nc1cccc(-n2nccn2)c1
Method in brief: as §1

[20] = compound: NC1(c2ccc(-c3nc4ccn5c(=O)[nH]nc5c4cc3-c3ccccc3)cc2)CCC1
Method in brief: as §1

Measured: log2 fold change

PARG (UniProt Q86W56)
inactive: [1] 0.017 | [2] -0.035 | [3] -0.058 | [4] 0.047 | [5] -0.02 | [6] -0.065 | [7] -0.033 | [8] 0.005 | [9] -0.004 | [10] -0.01 | [11] 0.006 | [12] 0.017 | [13] -0.033 | [14] 0.007 | [15] -0.004 | [16] -0.081 | [17] -0.007 | [18] 0.097 | [19] 0.006 | [20] 0.006

OLA1 (UniProt Q9NTK5)
inactive: [1] -0.009 | [2] 0.013 | [3] -0.005 | [4] -0.088 | [5] 0.007 | [6] -0.035 | [7] 0.025 | [8] 0.018 | [9] 0.024 | [10] 0.052 | [11] 0.001 | [12] -0.009 | [13] -0.023 | [14] 0.006 | [15] 0.018 | [16] -0.008 | [17] 0.018 | [18] 0.022 | [19] -0.006 | [20] 0.025

NUP88 (UniProt Q99567)
inactive: [1] 0.001 | [2] -0.018 | [3] 0.034 | [4] -0.014 | [5] -0.003 | [6] -0.039 | [7] -0.012 | [8] -0.044 | [9] -0.007 | [10] 0.045 | [11] -0.021 | [12] 0.032 | [13] -0.012 | [14] 0 | [15] -0.015 | [16] 0.002 | [17] -0.086 | [18] 0.034 | [19] 0.017 | [20] 0.02

PABPC4 isoform 3 (UniProt Q13310)
inactive: [1] 0 | [2] -0.006 | [3] 0.072 | [4] 0.02 | [5] 0.033 | [6] -0.04 | [7] 0.008 | [8] -0.04 | [9] -0.013 | [10] -0.023 | [11] -0.006 | [12] -0.01 | [13] -0.007 | [14] -0.009 | [15] 0.013 | [16] 0.098 | [17] 0.049 | [18] -0.01 | [19] 0 | [20] 0.004

OS9 (UniProt Q13438)
inactive: [1] -0.013 | [2] 0.012 | [3] -0.008 | [4] -0.008 | [5] -0.015 | [6] 0.013 | [7] 0.007 | [8] 0.006 | [9] -0.002 | [10] 0.043 | [11] -0.003 | [12] -0.017 | [13] -0.007 | [14] 0 | [15] 0.019 | [16] -0.002 | [17] -0.03 | [18] -0.009 | [19] 0.007 | [20] -0.011

PABPC1 (UniProt P11940)
inactive: [1] -0.006 | [2] 0.011 | [3] 0.052 | [4] 0.108 | [5] -0.023 | [6] -0.172 | [7] 0.051 | [8] -0.007 | [9] 0.014 | [10] -0.164 | [11] -0.007 | [12] -0.027 | [13] 0.006 | [14] 0.005 | [15] 0.058 | [16] 0.057 | [17] 0.039 | [18] -0.024 | [19] 0.006 | [20] 0.013

PACSIN2 (UniProt Q9UNF0)
inactive: [1] 0.001 | [2] -0.006 | [3] 0.039 | [4] 0.037 | [5] -0.008 | [6] -0.07 | [7] -0.005 | [8] -0.017 | [9] -0.002 | [10] -0.056 | [11] -0.001 | [12] -0.009 | [13] 0.004 | [14] 0.001 | [15] 0.037 | [16] 0.028 | [17] 0.041 | [18] -0.001 | [19] -0.005 | [20] -0.005

OMA1 (UniProt Q96E52)
inactive: [1] 0.002 | [2] -0.013 | [3] -0.034 | [4] -0.015 | [5] 0.008 | [6] 0.061 | [7] 0.038 | [8] 0.004 | [9] -0.017 | [10] 0.075 | [11] 0.026 | [12] -0.024 | [13] -0.052 | [14] 0.048 | [15] 0.011 | [16] 0.004 | [17] 0.001 | [18] 0.012 | [19] -0.013 | [20] -0.031

P4HB (UniProt P07237)
inactive: [1] 0.027 | [2] 0.035 | [3] 0.105 | [4] 0.041 | [5] 0.02 | [6] -0.015 | [7] 0 | [8] -0.005 | [9] 0.056 | [10] -0.045 | [11] -0.017 | [12] 0.007 | [13] 0.033 | [14] 0 | [15] 0.016 | [16] 0.103 | [17] 0.016 | [18] -0.026 | [19] -0.009 | [20] 0.023

OARD1 (UniProt Q9Y530)
inactive: [1] -0.001 | [2] -0.011 | [3] -0.003 | [4] -0.022 | [5] -0.015 | [6] -0.012 | [7] 0.042 | [8] 0.035 | [9] -0.023 | [10] 0.037 | [11] 0.015 | [12] 0.016 | [13] -0.031 | [14] 0.005 | [15] 0.071 | [16] -0.004 | [17] -0.014 | [18] 0.036 | [19] -0.009 | [20] -0.006

NUP50 (UniProt Q9UKX7)
inactive: [1] 0.017 | [2] -0.009 | [3] 0.032 | [4] -0.129 | [5] -0.012 | [6] 0.061 | [7] 0.024 | [8] -0.008 | [9] -0.016 | [10] 0.044 | [11] 0.005 | [12] 0.011 | [13] 0.042 | [14] -0.001 | [15] -0.045 | [16] 0.046 | [17] 0.012 | [18] -0.005 | [19] 0.008 | [20] 0.035

OTULIN (UniProt Q96BN8)
inactive: [1] -0.001 | [2] 0.021 | [3] -0.027 | [4] -0.019 | [5] -0.025 | [6] -0.019 | [7] 0.018 | [8] 0.087 | [9] -0.049 | [10] 0.04 | [11] 0.005 | [12] -0.019 | [13] 0.114 | [14] -0.04 | [15] 0.031 | [16] 0.003 | [17] -0.008 | [18] 0.02 | [19] 0.014 | [20] 0.079

OCIAD1 (UniProt Q9NX40)
inactive: [1] 0.003 | [2] -0.053 | [3] 0.022 | [4] -0.015 | [5] -0.013 | [6] 0.019 | [7] -0.025 | [8] -0.031 | [9] 0.001 | [10] -0.086 | [11] -0.003 | [12] 0.011 | [13] 0.006 | [14] -0.003 | [15] -0.005 | [16] -0.002 | [17] 0.005 | [18] -0.017 | [19] -0.002 | [20] -0.016

NUTF2 (UniProt P61970)
inactive: [1] 0.055 | [2] -0.032 | [3] 0.007 | [4] 0.031 | [5] 0.025 | [6] -0.024 | [7] 0.006 | [8] -0.026 | [9] 0.015 | [10] -0.004 | [11] 0.024 | [12] -0.016 | [13] -0.017 | [14] -0.004 | [15] 0.041 | [16] 0.034 | [17] 0.042 | [18] -0.005 | [19] -0.093 | [20] 0.037

4 consecutive records from above, for reference:
OARD1 (UniProt Q9Y530)
inactive: [1] -0.001 | [2] -0.011 | [3] -0.003 | [4] -0.022 | [5] -0.015 | [6] -0.012 | [7] 0.042 | [8] 0.035 | [9] -0.023 | [10] 0.037 | [11] 0.015 | [12] 0.016 | [13] -0.031 | [14] 0.005 | [15] 0.071 | [16] -0.004 | [17] -0.014 | [18] 0.036 | [19] -0.009 | [20] -0.006

NUP50 (UniProt Q9UKX7)
inactive: [1] 0.017 | [2] -0.009 | [3] 0.032 | [4] -0.129 | [5] -0.012 | [6] 0.061 | [7] 0.024 | [8] -0.008 | [9] -0.016 | [10] 0.044 | [11] 0.005 | [12] 0.011 | [13] 0.042 | [14] -0.001 | [15] -0.045 | [16] 0.046 | [17] 0.012 | [18] -0.005 | [19] 0.008 | [20] 0.035

OTULIN (UniProt Q96BN8)
inactive: [1] -0.001 | [2] 0.021 | [3] -0.027 | [4] -0.019 | [5] -0.025 | [6] -0.019 | [7] 0.018 | [8] 0.087 | [9] -0.049 | [10] 0.04 | [11] 0.005 | [12] -0.019 | [13] 0.114 | [14] -0.04 | [15] 0.031 | [16] 0.003 | [17] -0.008 | [18] 0.02 | [19] 0.014 | [20] 0.079

OCIAD1 (UniProt Q9NX40)
inactive: [1] 0.003 | [2] -0.053 | [3] 0.022 | [4] -0.015 | [5] -0.013 | [6] 0.019 | [7] -0.025 | [8] -0.031 | [9] 0.001 | [10] -0.086 | [11] -0.003 | [12] 0.011 | [13] 0.006 | [14] -0.003 | [15] -0.005 | [16] -0.002 | [17] 0.005 | [18] -0.017 | [19] -0.002 | [20] -0.016

Next entries:

NUP214 (UniProt P35658)
inactive: [1] 0.011 | [2] -0.028 | [3] 0.01 | [4] -0.08 | [5] -0.011 | [6] 0.006 | [7] -0.021 | [8] -0.027 | [9] -0.012 | [10] 0.1 | [11] -0.011 | [12] 0 | [13] -0.067 | [14] -0.011 | [15] -0.007 | [16] -0.057 | [17] -0.107 | [18] 0.062 | [19] 0.003 | [20] 0.015
